Experimental data as given in US20080075726A1 (VACCINEX, published 2008).
Results are given in words; binding and its absence hold for the method and conditions named. Some binding calls cover weakened binding; strength is not graded here.

Chains of the proteins cited; added tags and fusions are not shown. Residues count along the entry.
UniProt P05231, residues 30-212: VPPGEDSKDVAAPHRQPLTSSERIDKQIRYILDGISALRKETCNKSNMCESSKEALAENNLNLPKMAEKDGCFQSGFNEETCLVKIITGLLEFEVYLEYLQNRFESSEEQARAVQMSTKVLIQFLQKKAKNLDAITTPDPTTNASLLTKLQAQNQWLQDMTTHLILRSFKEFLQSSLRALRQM

What was measured:
recombinant human IL-6 [1] = target: T1, recombinant human IL-6 (human, UniProt P05231 30-212, limits assumed); experiment: IC50 ELISA (Table 11)
T1 construct: also called rhIL6; human recombinant IL-6

recombinant human IL-6 [2] = target: T1, recombinant human IL-6; experiment: flow cytometry blocking assay (mean N=3): IL-6 at 500 ng/ml with mAb at 5000 to 39.1 ng/ml, U266 cells bearing IL-6 receptor; cell-bound IL-6 detected with B-F6; readout inhibition percent of IL-6 binding
recombinant human IL-6 [3] = target: T1, recombinant human IL-6; experiment: flow cytometry blocking assay, single experiment: 100 ng/ml IL-6 with or without 0.3 µg/ml mAb, U266 cells bearing IL-6 receptor; FL2-H histograms (dark solid: IL-6 alone; light solid: IL-6 + mAb; dashed: mAb alone)
recombinant human IL-6 [4] = target: T1, recombinant human IL-6; experiment: flow cytometry blocking assay: biotinylated rhIL-6 (12 ng/ml on the sheet; 12.5 ng/ml in paragraph 183) pre-incubated with the mAb, then U266 cells bearing IL-6 receptor added; cell-bound IL-6 shown with streptavidin-PE; readout % inhibition
Experimental: FcR-blocked U266 cells (about 250,000 cells) were then added and co-incubated for another 30 min on ice. […] After washing, the cells were analyzed by flow cytometry.

| binding (recombinant human IL-6 [1]) | binding (recombinant human IL-6 [2]) | binding (recombinant human IL-6 [3]) | binding (recombinant human IL-6 [4]) | Binder |
| --- | --- | --- | --- | --- |
| binds |  |  |  | mAb 286 (antibody, V domains shown) VH: QVTLKESGPALVKPTQTLTLTCTFSGFSLSTSGMCVSWIRQPPGKALEWLTLIYWDDDKRYSPSLETRLTITKDTSKNQVVLTMTNMDPVDTATYYCARSYDDYLYYALDYWGQGTLVT VL: DIVMTQSPSSLSASVGDRVTITCRASQTISSYLNWYQQKPGKPPKLLIYAASSLESGVPSRFSGSGSGTEFTLTISSLQPEDLATYYCQQANSFPLTFGGGTKLE |
| binds |  |  |  | mAb 248 (antibody, V domains shown) VH: QVTLKESGPTLVKPTQTLTLTCTFSGFSLSTSGVAVGWIRQPPGKALEWLALIFWDDDKHYSPSLKSRLTITKDTSKNQVVLTMTNMDPVDTATYYCARSYDDYLYYALDYWGQGTLVTVSS VL: DIVMTQSPSSLSASVGDRVTITCRASQTISSYLNWYQQKPGKPPKLLIYAASSLESGVPSRFSGSGSGTEFTLTISSLQPEDLATYYCQQANSFPLTFGGGTKLE |
| binds |  |  |  | mAb 181 (antibody, V domains shown) VH: QVTLKESGPALVKPTQTLTLTCTFSGFSLTTSGMCVSWIRQPPGKALEWLALIYWDDDKRYNPSLRSRLTITKDTSKNQVVLTMTNMDPVDTATYYCARSYDDYLYYALDYWGQGTLVT VL: DIVMTQSPSSLSASVGDRVTITCRASQTISSYLNWYQQKPGKPPKLLIYAASSLESGVPSRFSGSGSGTEFTLTISSLQPEDLATYYCQQANSFPLTFGGGTKLE |
| binds | binds | binds | binds | mAb 242 (antibody, V domains shown) VH: QVTLKESGPTLVKPTQTLTLTCSFSGFSLSTSGVGVGWVRQPPGKALEWLAFIFWDDDKYYSPSLESRLTITKDTSKNQVVLTMTNMDPVDTATYYCARSYDDYLYYALDYWGQGTLVT VL: DIVMTQSPSSLSASVGDRVTITCRASQTISSYLNWYQQKPGKPPKLLIYAASSLESGVPSRFSGSGSGTEFTLTISSLQPEDLATYYCQQANSFPLTFGGGTKLE |
